In PubChem BioAssay AID330 (DTP/NCI, 2004):
The list does not hold the whole screen: it gathers tests that were run many times, whatever their T/C, doses with no T/C, and many T/C values between a quarter and a half above the control. Other doses and runs of a compound stand elsewhere. T/C is the treated group as % of the vehicle group. Some doses have a count of surviving animals in place of a T/C: the source holds a T/C of zero for them, seemingly a mark for toxic or unscored doses. Some survivor counts are full or nearly so, which does not show that the dose was tolerated: the source hardly ever lists a survival T/C far under the control, and the zero likely stands for such cases as well. Survivors were counted at the toxicity check, usually on the fifth day, unless a day is given; later deaths do not show. Schedule codes are those of the source, read here as Q, the interval in days (D) or hours (H), X, the number of doses. Some entries were tested several times; the values are given in rising order. Where survival is the endpoint, the PubChem record calls one and a half times the control and up active, and a quarter to a half above the control has no call in these data; cut-offs in other NCI protocols can differ. Some T/C values are followed by the survivors on the day toxicity was checked, most often the fifth; without a count, all were alive then.

Tested on: P388 leukemia ip, CD2F1 mice, survival T/C
Experiment: NCI In Vivo Anticancer Drug Screen. Data for tumor model P388 Leukemia (intraperitoneal) in CD2F1 (CDF1) mice
Conditions: T/C endpoint: median survival time, higher T/C = longer survival
[1] = dose: 50.0 mg/kg/injection, schedule: Q01DX005 (ip), vehicle: saline with Tween-80
[2] = dose: 100.0 mg/kg/injection, schedule: Q01DX005 (ip), vehicle: saline with Tween-80
[3] = dose: 200.0 mg/kg/injection, schedule: Q01DX005 (ip), vehicle: saline with Tween-80
[4] = dose: 240.0 mg/kg/injection, schedule: Q01DX005 (ip), vehicle: saline with Tween-80
[5] = dose: 12.5 mg/kg/injection, schedule: Q01DX009 (ip), vehicle: Klucel (hydroxypropylcellulose) (HPC)
[6] = dose: 50.0 mg/kg/injection, schedule: Q01DX009 (ip), vehicle: Klucel (hydroxypropylcellulose) (HPC)
[7] = dose: 100.0 mg/kg/injection, schedule: Q01DX009 (ip), vehicle: Klucel (hydroxypropylcellulose) (HPC)
[8] = dose: 200.0 mg/kg/injection, schedule: Q01DX009 (ip), vehicle: Klucel (hydroxypropylcellulose) (HPC)
[9] = dose: 400.0 mg/kg/injection, schedule: Q01DX005 (ip), vehicle: saline with Tween-80
[10] = dose: 120.0 mg/kg/injection, schedule: Q01DX005 (ip), vehicle: Klucel (hydroxypropylcellulose) (HPC)

COC(=O)C1(O)C(=O)NC2=C1C(=O)c1ccccc1C2=O (stereo not drawn)
T/C [1]: 138 % of control
survivor count [1]: 3 of 6
survivor count [2]: 0 of 6, 1 of 6, 2 of 6
survivor count [3]: 0 of 6

O=N[O-].O=N[O-].[NH2-].[NH2-].[NH2-].[NH2-].[Ni]
survivor count (dose: 25.0 mg/kg/injection, schedule: Q01DX009 (ip), vehicle: saline): 3 of 6
survivor count (dose: 50.0 mg/kg/injection, schedule: Q01DX009 (ip), vehicle: saline): 3 of 6
survivor count (dose: 100.0 mg/kg/injection, schedule: Q01DX009 (ip), vehicle: saline): 0 of 6
survivor count (dose: 200.0 mg/kg/injection, schedule: Q01DX009 (ip), vehicle: saline): 0 of 6

CCC12OC(COc3ccccc3)CN1CCN2c1ccccc1 (stereo not drawn)
survivor count [4]: 0 of 6

[Cl][Pt+2][Cl].[NH-]c1ccccc1F.[NH-]c1ccccc1F
T/C (dose: 1.56 mg/kg/injection, schedule: Q01DX009 (ip), vehicle: Klucel (hydroxypropylcellulose) (HPC)): 138 % of control
T/C (dose: 3.12 mg/kg/injection, schedule: Q01DX009 (ip), vehicle: Klucel (hydroxypropylcellulose) (HPC)): 145 % of control
T/C (dose: 6.25 mg/kg/injection, schedule: Q01DX009 (ip), vehicle: Klucel (hydroxypropylcellulose) (HPC)): 146 [5 of 6 alive] and 148 % of control
T/C [5]: 148 % of control [5 of 6 alive]
survivor count [5]: 5 of 6
survivor count (dose: 25.0 mg/kg/injection, schedule: Q01DX009 (ip), vehicle: Klucel (hydroxypropylcellulose) (HPC)): 1 of 6 and 4 of 6
survivor count [6]: 0 of 6
survivor count [7]: 0 of 6
survivor count [8]: 0 of 6

COC(=O)[C@]1(O)Cc2c(O)c3c(c(O)c2[C@@H](OC2CC(N)C(O)C(C)O2)C1)C(=O)c1c(OC)cccc1C3=O (stereo partly drawn)
T/C (dose: 12.5 mg/kg/injection, schedule: Q01DX009 (ip), vehicle: water): 129 % of control
T/C (dose: 25.0 mg/kg/injection, schedule: Q01DX009 (ip), vehicle: water): 125 and 129 % of control
T/C (dose: 50.0 mg/kg/injection, schedule: Q01DX009 (ip), vehicle: water): 129 [5 of 6 alive], 138, 146 % of control
T/C (dose: 75.0 mg/kg/injection, schedule: Q01DX009 (ip), vehicle: water): 146 [5 of 6 alive] and 149 % of control
survivor count (dose: 100.0 mg/kg/injection, schedule: Q01DX009 (ip), vehicle: water): 3 of 6

CC1/C=C/C=C/CC/C=C/C=C/C=C/C=C/C(OC2OC(C)C(O)C(N)C2O)CC2OC(CC(O)C(O)CCC(O)CC(O)CC(O)CC(=O)OC(C)C(C)C1O)CC(O)C2C(=O)O (stereo not drawn)
survivor count [2]: 3 of 5

OCC12COCN1COC2
T/C (dose: 400.0 mg/kg/injection, schedule: Q01DX009 (ip), vehicle: saline): 128 % of control

COc1ccc(CC2C(=O)NC(C)C(=O)N(C)C3C(=O)N(C)C(Cc4ccc(OC(C)=O)c(c4)Oc4ccc(cc4)C3OC(C)=O)C(=O)NC(C)C(=O)NC(C)C(=O)N2C)cc1 (stereo not drawn)
T/C (dose: 0.25 mg/kg/injection, schedule: Q01DX009 (ip), vehicle: none): 136 % of control
T/C (dose: 0.5 mg/kg/injection, schedule: Q01DX009 (ip), vehicle: none): 148 % of control
T/C (dose: 1.0 mg/kg/injection, schedule: Q01DX009 (ip), vehicle: none): 148 % of control

COc1cc2c(c(OC)c1OC)-c1ccc(OC)c(=O)cc1C(N(C)C(=O)CO)CC2 (stereo not drawn)
T/C (dose: 0.16 mg/kg/injection, schedule: Q01DX009 (ip), vehicle: saline): 143 % of control
T/C (dose: 0.31 mg/kg/injection, schedule: Q01DX009 (ip), vehicle: Klucel (hydroxypropylcellulose) (HPC)): 131 % of control
T/C (dose: 0.31 mg/kg/injection, schedule: Q01DX009 (ip), vehicle: saline): 143 % of control
T/C (dose: 0.62 mg/kg/injection, schedule: Q01DX009 (ip), vehicle: Klucel (hydroxypropylcellulose) (HPC)): 137 % of control
survivor count (dose: 1.25 mg/kg/injection, schedule: Q01DX009 (ip), vehicle: saline): 4 of 5
survivor count (dose: 2.5 mg/kg/injection, schedule: Q01DX009 (ip), vehicle: Klucel (hydroxypropylcellulose) (HPC)): 4 of 6
survivor count (dose: 2.5 mg/kg/injection, schedule: Q01DX009 (ip), vehicle: saline): 0 of 5
survivor count (dose: 5.0 mg/kg/injection, schedule: Q01DX009 (ip), vehicle: Klucel (hydroxypropylcellulose) (HPC)): 2 of 6
survivor count (dose: 10.0 mg/kg/injection, schedule: Q01DX009 (ip), vehicle: Klucel (hydroxypropylcellulose) (HPC)): 0 of 6
survivor count (dose: 20.0 mg/kg/injection, schedule: Q01DX009 (ip), vehicle: Klucel (hydroxypropylcellulose) (HPC)): 0 of 6
survivor count (dose: 40.0 mg/kg/injection, schedule: Q01DX009 (ip), vehicle: Klucel (hydroxypropylcellulose) (HPC)): 0 of 6

Cc1cc(N)ccc1N=Nc1ccc(N=Nc2ccc(N=Nc3ccc4cc(S(=O)(=O)O)cc(S(=O)(=O)O)c4c3)c(C)c2)c(C)c1
T/C [1]: 127 % of control
T/C [3]: 126 [5 of 6 alive] and 131 % of control
T/C [9]: 134 % of control [4 of 6 alive]
survivor count [9]: 5 of 6

CC(CC1CCCCC1)NCCC(c1ccccc1)c1ccccc1 (stereo not drawn)
survivor count [6]: 0 of 6 and 3 of 6
survivor count [7]: 0 of 6
survivor count [8]: 0 of 6

O=C(Cc1nc2ccccc2[nH]c1=O)N/N=C/c1ccc2c(c1)CCC2
survivor count (dose: 120.0 mg/kg/injection, schedule: Q01DX005 (ip), vehicle: saline with Tween-80): 6 of 6
survivor count [4]: 6 of 6

COc1cccc2c1C(=O)c1c(O)c3c(c(O)c1C2=O)CC(O)(C(=O)CO)CC3OC1CC2C(OC3COCC(C#N)N32)C(C)O1 (stereo not drawn)
T/C (dose: 1.0 mg/kg/injection, schedule: Q04DX003 (ip), vehicle: saline with Tween-80): 126 % of control
T/C (dose: 2.0 mg/kg/injection, schedule: Q04DX003 (ip), vehicle: saline with Tween-80): 134 and 136 % of control
T/C (dose: 4.0 mg/kg/injection, schedule: Q04DX003 (ip), vehicle: saline with Tween-80): 127 % of control

CNC(=O)NC(c1cc(OC)c(OC)c(OC)c1)c1cc2c(cc1O)OCO2 (stereo not drawn)
survivor count [10]: 6 of 6

Nc1nc(=S)c2[nH]c(N=Nc3ccc(S(=O)(=O)O)cc3)nc2[nH]1
T/C (dose: 12.5 mg/kg/injection, schedule: Q04DX003 (ip), vehicle: saline): 133 % of control
T/C (dose: 25.0 mg/kg/injection, schedule: Q04DX003 (ip), vehicle: saline): 136 % of control
T/C (dose: 50.0 mg/kg/injection, schedule: Q04DX003 (ip), vehicle: saline): 133 % of control

CN1CCN(C(=O)/C=C/C(=O)c2ccccc2)CC1
T/C (dose: 60.0 mg/kg/injection, schedule: Q01DX005 (ip), vehicle: Klucel (hydroxypropylcellulose) (HPC)): 127 % of control
T/C [10]: 134 % of control
survivor count (dose: 120.0 mg/kg/injection, schedule: Q01DX005 (ip), vehicle: saline): 1 of 6 and 2 of 6
survivor count (dose: 240.0 mg/kg/injection, schedule: Q01DX005 (ip), vehicle: saline): 0 of 6

CCOc1ccc(/C=C/C(C)=N/NC(N)=Nc2ccc(Cl)cc2)cc1
survivor count [2]: 5 of 6
survivor count [3]: 0 of 6

CC(C)=CCCC(C)C1=C(O)C(=O)C(C)=CC1=O (stereo not drawn)
survivor count (dose: 25.0 mg/kg/injection, schedule: Q01DX005 (ip), vehicle: Klucel (hydroxypropylcellulose) (HPC)): 1 of 6
survivor count (dose: 50.0 mg/kg/injection, schedule: Q01DX005 (ip), vehicle: Klucel (hydroxypropylcellulose) (HPC)): 0 of 6
survivor count (dose: 93.25 mg/kg/injection, schedule: Q01DX005 (ip), vehicle: Klucel (hydroxypropylcellulose) (HPC)): 0 of 6
survivor count (dose: 100.0 mg/kg/injection, schedule: Q01DX005 (ip), vehicle: Klucel (hydroxypropylcellulose) (HPC)): 0 of 6
survivor count (dose: 186.0 mg/kg/injection, schedule: Q01DX005 (ip), vehicle: Klucel (hydroxypropylcellulose) (HPC)): 0 of 6
survivor count (dose: 373.0 mg/kg/injection, schedule: Q01DX005 (ip), vehicle: Klucel (hydroxypropylcellulose) (HPC)): 0 of 6
survivor count (dose: 746.0 mg/kg/injection, schedule: Q01DX005 (ip), vehicle: Klucel (hydroxypropylcellulose) (HPC)): 0 of 6
